For at least one entry, the source does not settle the construct or the ends of the probe. Results from cells or extracts need not show a direct contact. For some assays here: Where a protein sequence is shown, tags need not be part of it. For some assays here: The direction of at least one scale is not stated here.
Columns and labels:
[1] = molecular target: Nkx-2.5 (Rattus norvegicus (neonatal rat cardiomyocytes)) (UniProt O35767); experiment: EMSA, supershift; settings: binding activity increased by ATF3 overexpression; EMSA binding buffer, pH and temperature not given; nuclear extract in 20 mM HEPES, 0.4 M NaCl, 1 mM EDTA, 1 mM EGTA, DTT; protein in an extract; label: 32P (alpha-32P-dCTP)
[2] = molecular target: T1, ATF3 (endogenous, NRCM nuclear extract) (Rattus norvegicus (neonatal rat cardiomyocytes)) (UniProt P29596); experiment: EMSA; settings: ET-1 100 nM, 1 h, reflects amount of active protein; EMSA binding buffer, pH and temperature not given; nuclear extract in 20 mM HEPES, 0.4 M NaCl, 1 mM EDTA, 1 mM EGTA, DTT; protein in an extract; label: 32P (alpha-32P-dCTP), unlabeled as competitor
T1 sequence (looked up, limits assumed): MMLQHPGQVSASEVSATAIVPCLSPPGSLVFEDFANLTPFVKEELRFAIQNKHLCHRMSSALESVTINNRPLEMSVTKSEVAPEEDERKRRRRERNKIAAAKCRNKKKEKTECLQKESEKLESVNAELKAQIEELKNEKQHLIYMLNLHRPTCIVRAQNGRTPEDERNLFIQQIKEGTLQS

Sequences of proteins named here, by UniProt entry; tags and fusion partners are left off.
UniProt O35767, whole entry: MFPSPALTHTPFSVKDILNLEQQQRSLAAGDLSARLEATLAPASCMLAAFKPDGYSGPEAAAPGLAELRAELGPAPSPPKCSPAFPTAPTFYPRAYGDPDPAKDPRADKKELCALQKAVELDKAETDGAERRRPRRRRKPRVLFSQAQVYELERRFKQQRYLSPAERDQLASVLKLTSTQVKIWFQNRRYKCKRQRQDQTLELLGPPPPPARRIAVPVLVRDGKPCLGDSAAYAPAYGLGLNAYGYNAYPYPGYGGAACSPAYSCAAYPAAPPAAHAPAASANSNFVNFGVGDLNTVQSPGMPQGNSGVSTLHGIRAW

[3] = molecular target: T2, ATF3 (adenoviral overexpression, NRCM nuclear extract) (UniProt P29596); experiment: EMSA; settings: ATF3 adenovirus 4 MOI, 24 h, P<0.001, reflects amount of active protein; EMSA binding buffer, pH and temperature not given; nuclear extract in 20 mM HEPES, 0.4 M NaCl, 1 mM EDTA, 1 mM EGTA, DTT; protein in an extract; residues 1-181; label: 32P (alpha-32P-dCTP), unlabeled as competitor
T2 sequence (looked up): T1 sequence (looked up, limits assumed)

[4] = molecular target: T1, ATF3 (endogenous, NRCM nuclear extract) (Rattus norvegicus (neonatal rat cardiomyocytes)); experiment: EMSA, supershift, self competition; settings: 1-, 10-, 100-fold molar excess self competitor, dose-dependent inhibition; EMSA binding buffer, pH and temperature not given; nuclear extract in 20 mM HEPES, 0.4 M NaCl, 1 mM EDTA, 1 mM EGTA, DTT; protein in an extract; label: 32P (alpha-32P-dCTP), unlabeled as competitor
[5] = molecular target: T1, ATF3 (endogenous, NRCM nuclear extract) (Rattus norvegicus (neonatal rat cardiomyocytes)); experiment: EMSA, supershift; settings: p38alpha+MKK3b overexpression, increased binding activity, lesser with p38beta+MKK6b; EMSA binding buffer, pH and temperature not given; nuclear extract in 20 mM HEPES, 0.4 M NaCl, 1 mM EDTA, 1 mM EGTA, DTT; protein in an extract; label: 32P (alpha-32P-dCTP), unlabeled as competitor

Sequence	binding result [1]	binding signal (% increase vs untreated extract) [2]	binding signal (% increase vs LacZ extract) [3]	binding result [4]	binding result [5]
AGAGACCTTTGAAGTGGGGGCCTCTTGAGGCCCCG (double strand) [Nkx-2.5 probe]	binds				
CTCGATGCCATGACATCATCTTTA (double strand) [ATF3 probe]		31.8	35.6	binds	binds
